Values from PubChem BioAssay AID1224826 (NIAID, 2016).
The whole screen tested about 17,000 reagents; shown is a random part of them. About 1,110 of them (6.6%) count as active. 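Active means lowered or raised reporter signal; replicate intensities are raw and not normalised per plate.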

- Assay: 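Genes that change LPS-induced Tnf promoter activity in mouse macrophages when knocked down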 (primary screen)
- Cells: RAW264.7 G9 macrophages from mouse bearing reporters for p65 (GFP) and the Tnf promoter (mCherry)
- Reagents: siRNA pool against mouse genes, 100 nM
- Duration: 16 h of LPS stimulation, after 2 days of siRNA transfection
- Challenge: bacterial lipopolysaccharide (Salmonella minnesota R595), 10 ng/ml
- Measured: 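Imaged Tnf reporter mCherry in nuclei, minus background, normalised per plate to the median and expressed as robust z-scores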
- Reading the numbers: Tnf reporter robust z-score: higher = stronger Tnf promoter reporter signal after LPS; Tnf reporter intensity: higher = stronger Tnf promoter reporter signal
- Active means: 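Called active when robust z-score is at most -1.3, matching the median of the Tlr4 knock-down control, or over 3; control wells and wells with under 50 cells never active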
- Meaning of the calls: active = Tnf reporter clearly lowered or raised; inactive = no clear change in Tnf reporter

Target gene | Tnf reporter robust z-score | fewer than 50 cells in well | Tnf reporter intensity, replicate 1 | Tnf reporter intensity, replicate 2 | Call
5730493B19Rik (RIKEN cDNA 5730493B19 gene) | 0.58 | enough cells in well | 217 | 170 | inactive
Des (desmin) | 2.17 | enough cells in well | 364 | 249 | inactive
Ptpn18 (protein tyrosine phosphatase, non-receptor type 18) | -0.54 | enough cells in well | 187 | 169 | inactive
Zik1 (zinc finger protein interacting with K protein 1) | 1.46 | enough cells in well | 170 | 204 | inactive
Plk4 (polo like kinase 4) | -0.06 | enough cells in well | 196 | 154 | inactive
Zbtb17 (zinc finger and BTB domain containing 17) | -0.39 | enough cells in well | 233 | 159 | inactive
LOC277923 (retired record) | 0.22 | enough cells in well | 244 | 124 | inactive
Cr2 (complement receptor 2) | -0.79 | enough cells in well | 141 | 180 | inactive
Mrpl15 (mitochondrial ribosomal protein L15) | 0.99 | enough cells in well | 196 | 200 | inactive
Toporsl (topoisomerase I binding, arginine/serine-rich like) | – | fewer than 50 cells per well; well left out of calls | 297 | 144 | inactive
Grep1 (glycine rich extracellular protein 1) | -1.06 | enough cells in well | 185 | 79.5 | inactive
Klf2 (Kruppel-like transcription factor 2 (lung)) | -0.53 | enough cells in well | 192 | 128 | inactive
Pard6g (par-6 family cell polarity regulator gamma) | -0.15 | enough cells in well | 160 | 108 | inactive
Bmpr1a (bone morphogenetic protein receptor, type 1A) | -0.68 | enough cells in well | 166 | 109 | inactive
Krtap3-3 (keratin associated protein 3-3) | 0.12 | enough cells in well | 191 | 143 | inactive
Rfx6 (regulatory factor X, 6) | 0.4 | enough cells in well | 164 | 126 | inactive
Emid1 (EMI domain containing 1) | 2.01 | enough cells in well | 311 | 98.6 | inactive
Rtbdn (retbindin) | 0.98 | enough cells in well | 247 | 308 | inactive
Ccl22 (C-C motif chemokine ligand 22) | 1.15 | enough cells in well | 368 | 264 | inactive
Bnipl (BCL2/adenovirus E1B 19kD interacting protein like) | 0.56 | enough cells in well | 0 | 196 | inactive
V1ra8 (vomeronasal 1 receptor, A8) | 0.15 | enough cells in well | 117 | 100 | inactive
Prr18 (proline rich 18) | 1.38 | enough cells in well | 253 | 288 | inactive
C1qtnf3 (C1q and tumor necrosis factor related protein 3) | – | fewer than 50 cells per well; well left out of calls | 112 | 155 | inactive
Vmn1r89 (vomeronasal 1 receptor 89) | -0.51 | enough cells in well | 116 | 60 | inactive

4 entries from above, limited to “Tnf reporter intensity, replicate 1”:
Mrpl15 (mitochondrial ribosomal protein L15): 196
Toporsl (topoisomerase I binding, arginine/serine-rich like): 297
Grep1 (glycine rich extracellular protein 1): 185
Klf2 (Kruppel-like transcription factor 2 (lung)): 192

More entries:
Target gene | Tnf reporter robust z-score | fewer than 50 cells in well | Tnf reporter intensity, replicate 1 | Tnf reporter intensity, replicate 2 | Call
Ppp3r1 | 0.07 | enough cells in well | 253 | 196 | inactive
Wipf1 (WAS/WASL interacting protein family, member 1) | 0.22 | enough cells in well | 296 | 233 | inactive
Cib3 (calcium and integrin binding family member 3) | 0.12 | enough cells in well | 164 | 151 | inactive
S100a5 (S100 calcium binding protein A5) | 0.05 | enough cells in well | 292 | 224 | inactive
Hdac4 (histone deacetylase 4) | -1.65 | enough cells in well | 65.7 | 74.5 | active
Catsper1 (cation channel, sperm associated 1) | 0.55 | enough cells in well | 320 | 219 | inactive
Mpdu1 (mannose-P-dolichol utilization defect 1) | 2.56 | enough cells in well | 256 | 290 | inactive
Atp5pb (ATP synthase peripheral stalk-membrane subunit b) | -0.26 | enough cells in well | 157 | 149 | inactive
Mettl27 (methyltransferase like 27) | -0.71 | enough cells in well | 143 | 172 | inactive
Igfbp6 (insulin-like growth factor binding protein 6) | 0.19 | enough cells in well | 258 | 196 | inactive
Tmem45b (transmembrane protein 45b) | -0.24 | enough cells in well | 170 | 213 | inactive
Tmem184a (transmembrane protein 184a) | -0.09 | enough cells in well | 238 | 157 | inactive
Lacc1 (laccase domain containing 1) | 0.41 | enough cells in well | 217 | 202 | inactive
Garin1b (golgi associated RAB2 interactor 1B) | 0.08 | enough cells in well | 259 | 164 | inactive
Or11h7 (olfactory receptor family 11 subfamily H member 7) | 1.05 | enough cells in well | 256 | 160 | inactive
Or5an1c (olfactory receptor family 5 subfamily AN member 1C) | -1.51 | enough cells in well | 94.1 | 85.6 | active
Rif1 (replication timing regulatory factor 1) | 0.49 | enough cells in well | 259 | 156 | inactive
Mgl2 | -0.11 | enough cells in well | 145 | 173 | inactive
Aco2 (aconitase 2, mitochondrial) | -0.26 | enough cells in well | 190 | 168 | inactive
Mtor (mechanistic target of rapamycin kinase) | – | fewer than 50 cells per well; well left out of calls | 124 | 70.5 | inactive
Sema3c | 0.66 | enough cells in well | 374 | 234 | inactive
Cst9 (cystatin 9) | 0.15 | enough cells in well | 200 | 179 | inactive
Strc (stereocilin) | -0.25 | enough cells in well | 221 | 227 | inactive
Galnt13 (polypeptide N-acetylgalactosaminyltransferase 13) | -1.53 | enough cells in well | 119 | 68.3 | active
Mrpl28 (mitochondrial ribosomal protein L28) | -0.87 | enough cells in well | 185 | 146 | inactive
Cytl1 (cytokine-like 1) | 0.01 | enough cells in well | 150 | 168 | inactive
Mpv17l (Mpv17 transgene, kidney disease mutant-like) | 0.66 | enough cells in well | 308 | 113 | inactive
Tuba1b (tubulin, alpha 1B) | -0.23 | enough cells in well | 215 | 208 | inactive
Apaf1 (apoptotic peptidase activating factor 1) | -0.17 | enough cells in well | 139 | 182 | inactive
Bri3 (brain protein I3) | – | fewer than 50 cells per well; well left out of calls | 174 | 148 | inactive
Ncam1 (neural cell adhesion molecule 1) | -0.09 | enough cells in well | 231 | 220 | inactive
Fcamr (Fc receptor, IgA, IgM, high affinity) | 1.48 | enough cells in well | 275 | 269 | inactive
Bcas2 (BCAS2 pre-mRNA processing factor) | 0.26 | enough cells in well | 178 | 147 | inactive
Atp4a (ATPase, H+/K+ exchanging, gastric, alpha polypeptide) | -0.84 | enough cells in well | 150 | 92 | inactive
